Experimental data: US20050152896A1
No constants are given. Whether binding was seen depends on the method and setting. Some entries that bind do so weakly or less than the wild type.

By UniProt entry, the sequences of proteins in these tests, tags left out. Residues count along the entry.
UniProt P47212, residues 33-61: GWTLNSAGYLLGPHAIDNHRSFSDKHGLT

Target: murine galanin (mature, processed form) (murine) (UniProt P47212)
Experiment: epitope mapping

B1: murine monoclonal antibody 2H9 (antibody, mouse IgG1, V domains shown)
VH: EIQLQQSEAELVKPGASVRLSCATSGFNIKDYYIHWVKQTTEQGLEWIGRIDPEDGETEYAPKFQGKATIAADTSSNTAYLLLNSLSSEDTAVYYCTRGYASWGQGTTLTVSS
VL: DVLMTQTPLSLSVSLGDQASISCRSSQSFVHSDGNTYLEWYLQKSGQSPKLLIYKVSNRFSGVPDRFSGSGSGTDFTLKINRVEAEDLGVYYCFQGSHVPYTFGGGTKLEIKR
binding: binds
